# Experimental data: the supplement of paper PMC6411743
# The chains behind the UniProt entries cited, without tags or fusion partners. Where a name states a change or a piece, a line headed by the entry shows the natural chain unless it says otherwise.
# UniProt Q06546: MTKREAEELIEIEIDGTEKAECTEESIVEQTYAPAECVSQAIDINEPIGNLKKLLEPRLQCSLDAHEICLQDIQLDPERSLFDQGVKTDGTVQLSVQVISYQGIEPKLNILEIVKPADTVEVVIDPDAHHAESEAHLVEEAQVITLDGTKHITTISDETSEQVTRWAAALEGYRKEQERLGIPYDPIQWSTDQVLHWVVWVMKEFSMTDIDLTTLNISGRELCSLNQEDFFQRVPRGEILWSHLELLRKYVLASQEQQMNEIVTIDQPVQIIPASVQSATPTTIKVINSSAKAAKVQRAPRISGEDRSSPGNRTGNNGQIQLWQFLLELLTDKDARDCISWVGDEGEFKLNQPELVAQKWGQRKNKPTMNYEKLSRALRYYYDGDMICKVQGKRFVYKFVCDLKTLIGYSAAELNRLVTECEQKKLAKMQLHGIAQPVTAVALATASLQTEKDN
# UniProt P62633: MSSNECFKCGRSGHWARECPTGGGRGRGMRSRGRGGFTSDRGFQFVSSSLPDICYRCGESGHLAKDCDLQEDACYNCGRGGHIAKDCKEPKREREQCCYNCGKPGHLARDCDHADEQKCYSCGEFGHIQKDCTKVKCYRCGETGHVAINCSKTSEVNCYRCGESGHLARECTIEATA
# UniProt P55809: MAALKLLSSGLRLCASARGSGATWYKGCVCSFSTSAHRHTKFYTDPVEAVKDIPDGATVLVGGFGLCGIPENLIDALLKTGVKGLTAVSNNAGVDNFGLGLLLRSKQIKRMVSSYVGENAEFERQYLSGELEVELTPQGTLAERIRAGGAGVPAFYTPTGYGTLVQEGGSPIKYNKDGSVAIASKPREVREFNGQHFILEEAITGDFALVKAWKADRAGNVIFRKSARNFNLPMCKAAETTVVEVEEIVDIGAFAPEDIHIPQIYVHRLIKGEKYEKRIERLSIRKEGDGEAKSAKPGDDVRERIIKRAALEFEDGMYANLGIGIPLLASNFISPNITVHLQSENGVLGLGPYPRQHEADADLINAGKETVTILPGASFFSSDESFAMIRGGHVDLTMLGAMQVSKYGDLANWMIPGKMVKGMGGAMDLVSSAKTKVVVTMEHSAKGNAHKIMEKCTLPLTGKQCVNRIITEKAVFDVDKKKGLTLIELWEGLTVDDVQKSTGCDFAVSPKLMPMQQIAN
# UniProt P59190: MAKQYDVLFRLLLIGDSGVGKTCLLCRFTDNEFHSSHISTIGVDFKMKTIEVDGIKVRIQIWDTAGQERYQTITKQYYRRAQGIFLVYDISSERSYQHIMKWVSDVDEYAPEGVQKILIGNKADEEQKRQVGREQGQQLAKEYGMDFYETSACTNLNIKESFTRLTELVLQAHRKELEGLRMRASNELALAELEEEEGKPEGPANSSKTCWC
# UniProt Q02790: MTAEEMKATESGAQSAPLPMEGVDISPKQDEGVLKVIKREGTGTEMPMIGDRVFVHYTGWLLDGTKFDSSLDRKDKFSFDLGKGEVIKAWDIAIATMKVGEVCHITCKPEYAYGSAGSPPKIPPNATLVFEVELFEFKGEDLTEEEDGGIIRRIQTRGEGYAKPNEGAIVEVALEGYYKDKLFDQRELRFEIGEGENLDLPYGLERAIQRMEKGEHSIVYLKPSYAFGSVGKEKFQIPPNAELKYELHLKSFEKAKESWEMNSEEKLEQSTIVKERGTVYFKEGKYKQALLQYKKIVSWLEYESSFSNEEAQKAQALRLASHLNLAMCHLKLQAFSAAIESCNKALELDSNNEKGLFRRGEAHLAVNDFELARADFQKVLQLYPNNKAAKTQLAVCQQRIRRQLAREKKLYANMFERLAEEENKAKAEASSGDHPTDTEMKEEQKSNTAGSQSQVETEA
# UniProt P56524: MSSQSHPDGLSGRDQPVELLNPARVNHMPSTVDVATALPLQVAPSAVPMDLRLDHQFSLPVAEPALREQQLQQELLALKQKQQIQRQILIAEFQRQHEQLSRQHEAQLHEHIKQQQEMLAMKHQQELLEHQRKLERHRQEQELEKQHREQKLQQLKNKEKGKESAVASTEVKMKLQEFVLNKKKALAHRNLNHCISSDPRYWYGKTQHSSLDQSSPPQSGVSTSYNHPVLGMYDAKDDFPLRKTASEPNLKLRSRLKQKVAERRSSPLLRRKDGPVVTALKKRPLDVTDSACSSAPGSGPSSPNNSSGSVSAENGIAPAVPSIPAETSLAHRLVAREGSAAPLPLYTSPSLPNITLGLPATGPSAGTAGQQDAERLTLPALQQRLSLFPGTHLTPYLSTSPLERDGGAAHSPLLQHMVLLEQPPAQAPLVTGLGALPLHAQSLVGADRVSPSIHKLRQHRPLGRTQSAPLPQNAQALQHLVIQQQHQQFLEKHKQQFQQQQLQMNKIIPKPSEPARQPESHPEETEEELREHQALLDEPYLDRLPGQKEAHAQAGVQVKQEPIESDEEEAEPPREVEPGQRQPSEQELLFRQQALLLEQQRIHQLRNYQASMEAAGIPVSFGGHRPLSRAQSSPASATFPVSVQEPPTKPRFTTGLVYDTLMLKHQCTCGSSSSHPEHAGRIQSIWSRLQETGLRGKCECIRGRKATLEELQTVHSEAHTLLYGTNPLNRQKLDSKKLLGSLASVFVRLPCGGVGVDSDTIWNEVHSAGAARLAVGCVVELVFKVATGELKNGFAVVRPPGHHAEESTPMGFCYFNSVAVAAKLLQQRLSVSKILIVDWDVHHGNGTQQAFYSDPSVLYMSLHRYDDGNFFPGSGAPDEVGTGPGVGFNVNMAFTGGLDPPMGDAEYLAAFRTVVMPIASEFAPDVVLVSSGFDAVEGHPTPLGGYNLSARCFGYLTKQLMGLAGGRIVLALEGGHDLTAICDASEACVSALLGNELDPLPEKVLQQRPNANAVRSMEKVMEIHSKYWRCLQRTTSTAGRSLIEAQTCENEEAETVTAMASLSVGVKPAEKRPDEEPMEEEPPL
# UniProt P62879, whole entry: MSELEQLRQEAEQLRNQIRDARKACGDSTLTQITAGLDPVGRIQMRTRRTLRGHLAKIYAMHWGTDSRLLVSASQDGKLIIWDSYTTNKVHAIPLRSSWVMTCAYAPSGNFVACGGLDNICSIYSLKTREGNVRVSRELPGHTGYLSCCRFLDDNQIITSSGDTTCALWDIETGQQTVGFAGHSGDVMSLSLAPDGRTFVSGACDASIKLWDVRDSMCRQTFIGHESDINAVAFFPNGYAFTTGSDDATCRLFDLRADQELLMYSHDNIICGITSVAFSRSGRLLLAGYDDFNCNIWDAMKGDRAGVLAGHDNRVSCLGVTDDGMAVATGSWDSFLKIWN
# UniProt Q05048: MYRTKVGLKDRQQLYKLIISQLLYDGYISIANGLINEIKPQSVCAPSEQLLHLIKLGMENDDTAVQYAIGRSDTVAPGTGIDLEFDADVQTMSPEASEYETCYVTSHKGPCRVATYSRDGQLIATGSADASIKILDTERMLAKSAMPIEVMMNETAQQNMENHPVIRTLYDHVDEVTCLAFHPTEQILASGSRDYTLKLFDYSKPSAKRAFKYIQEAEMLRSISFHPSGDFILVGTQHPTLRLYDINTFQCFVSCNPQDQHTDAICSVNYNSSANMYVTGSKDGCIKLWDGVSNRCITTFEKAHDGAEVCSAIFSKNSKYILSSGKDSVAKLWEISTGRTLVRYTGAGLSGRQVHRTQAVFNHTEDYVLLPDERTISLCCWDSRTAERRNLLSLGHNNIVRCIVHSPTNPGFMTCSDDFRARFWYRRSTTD
# UniProt Q01850: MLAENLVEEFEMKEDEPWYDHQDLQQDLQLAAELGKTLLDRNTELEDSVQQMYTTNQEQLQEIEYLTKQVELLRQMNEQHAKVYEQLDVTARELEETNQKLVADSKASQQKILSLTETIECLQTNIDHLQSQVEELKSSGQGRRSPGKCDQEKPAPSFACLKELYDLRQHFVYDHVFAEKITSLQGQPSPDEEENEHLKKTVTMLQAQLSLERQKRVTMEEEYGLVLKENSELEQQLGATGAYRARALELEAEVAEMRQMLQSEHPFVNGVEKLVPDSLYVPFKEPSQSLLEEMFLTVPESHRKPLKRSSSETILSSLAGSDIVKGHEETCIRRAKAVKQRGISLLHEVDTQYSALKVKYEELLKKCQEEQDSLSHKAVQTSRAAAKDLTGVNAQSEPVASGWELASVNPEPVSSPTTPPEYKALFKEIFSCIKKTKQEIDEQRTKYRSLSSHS
# UniProt Q04917: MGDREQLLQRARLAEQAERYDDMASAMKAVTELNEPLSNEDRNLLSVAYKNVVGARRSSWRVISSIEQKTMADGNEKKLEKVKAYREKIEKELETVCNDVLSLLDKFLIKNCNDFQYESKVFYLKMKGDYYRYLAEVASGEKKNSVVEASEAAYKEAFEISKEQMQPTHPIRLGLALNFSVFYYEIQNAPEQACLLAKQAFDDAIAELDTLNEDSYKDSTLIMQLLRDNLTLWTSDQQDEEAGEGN
# UniProt P62330: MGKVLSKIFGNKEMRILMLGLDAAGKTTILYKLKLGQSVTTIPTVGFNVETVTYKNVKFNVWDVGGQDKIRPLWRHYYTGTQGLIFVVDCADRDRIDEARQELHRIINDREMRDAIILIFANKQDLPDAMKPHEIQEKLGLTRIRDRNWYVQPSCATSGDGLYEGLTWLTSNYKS
# UniProt P78310: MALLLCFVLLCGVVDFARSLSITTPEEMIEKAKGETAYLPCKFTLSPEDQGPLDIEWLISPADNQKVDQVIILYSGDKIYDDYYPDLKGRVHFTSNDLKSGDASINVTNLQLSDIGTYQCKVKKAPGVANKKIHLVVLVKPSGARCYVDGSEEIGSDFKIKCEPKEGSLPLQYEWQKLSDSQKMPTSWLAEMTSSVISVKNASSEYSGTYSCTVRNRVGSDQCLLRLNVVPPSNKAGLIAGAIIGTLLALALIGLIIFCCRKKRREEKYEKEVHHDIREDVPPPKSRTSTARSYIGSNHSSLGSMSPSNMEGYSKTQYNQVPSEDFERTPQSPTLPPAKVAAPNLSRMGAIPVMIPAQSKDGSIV
# UniProt P60983, whole entry: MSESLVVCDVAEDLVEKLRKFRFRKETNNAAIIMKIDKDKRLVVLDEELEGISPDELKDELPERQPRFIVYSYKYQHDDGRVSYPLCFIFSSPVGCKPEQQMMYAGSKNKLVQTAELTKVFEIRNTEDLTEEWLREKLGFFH
# UniProt Q00796: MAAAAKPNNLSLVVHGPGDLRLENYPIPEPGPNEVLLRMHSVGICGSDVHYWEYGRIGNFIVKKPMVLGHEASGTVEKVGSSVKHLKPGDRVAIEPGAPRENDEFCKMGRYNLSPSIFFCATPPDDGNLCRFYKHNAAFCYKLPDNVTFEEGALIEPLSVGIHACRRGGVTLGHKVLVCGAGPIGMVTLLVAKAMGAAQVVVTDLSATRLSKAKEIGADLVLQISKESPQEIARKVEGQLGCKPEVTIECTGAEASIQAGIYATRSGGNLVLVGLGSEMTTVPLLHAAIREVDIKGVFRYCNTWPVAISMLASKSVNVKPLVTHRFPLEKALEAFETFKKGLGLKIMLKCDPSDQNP
# UniProt P61962: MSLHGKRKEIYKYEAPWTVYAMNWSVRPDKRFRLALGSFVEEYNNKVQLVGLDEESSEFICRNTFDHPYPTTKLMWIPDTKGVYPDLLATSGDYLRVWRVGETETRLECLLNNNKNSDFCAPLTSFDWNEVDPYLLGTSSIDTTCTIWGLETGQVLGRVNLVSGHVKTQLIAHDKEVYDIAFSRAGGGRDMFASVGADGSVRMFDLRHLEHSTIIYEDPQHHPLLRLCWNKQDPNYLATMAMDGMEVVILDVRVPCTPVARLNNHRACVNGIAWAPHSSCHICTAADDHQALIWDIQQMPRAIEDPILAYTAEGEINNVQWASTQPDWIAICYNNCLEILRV
# UniProt P63146, whole entry: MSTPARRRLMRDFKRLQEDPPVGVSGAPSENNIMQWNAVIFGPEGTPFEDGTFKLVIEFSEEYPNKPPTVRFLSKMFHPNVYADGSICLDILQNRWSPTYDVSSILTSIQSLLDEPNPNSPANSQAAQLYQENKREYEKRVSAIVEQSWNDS
# UniProt Q05932: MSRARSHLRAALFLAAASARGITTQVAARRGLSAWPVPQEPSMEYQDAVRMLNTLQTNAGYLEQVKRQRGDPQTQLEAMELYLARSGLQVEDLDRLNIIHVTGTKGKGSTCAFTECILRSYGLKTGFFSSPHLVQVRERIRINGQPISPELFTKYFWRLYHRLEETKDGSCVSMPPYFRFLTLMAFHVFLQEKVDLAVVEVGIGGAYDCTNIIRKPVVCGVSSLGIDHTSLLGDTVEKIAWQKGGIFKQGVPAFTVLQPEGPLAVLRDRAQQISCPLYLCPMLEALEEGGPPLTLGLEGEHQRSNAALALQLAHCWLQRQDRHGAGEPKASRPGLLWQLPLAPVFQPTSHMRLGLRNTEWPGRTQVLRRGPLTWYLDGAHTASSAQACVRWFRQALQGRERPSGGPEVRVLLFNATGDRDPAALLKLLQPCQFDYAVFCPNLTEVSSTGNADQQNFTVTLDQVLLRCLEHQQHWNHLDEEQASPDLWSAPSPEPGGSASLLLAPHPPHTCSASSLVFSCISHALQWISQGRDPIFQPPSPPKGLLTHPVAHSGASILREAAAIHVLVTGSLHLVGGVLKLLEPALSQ
# ± gives the standard deviation of the averaged measurements. The entries are a selection whose mix differs from that of the whole data set. Most entries show no effect beyond the scatter of the controls.
# Compound: Nc1ncnc2c1ncn2[C@@H]1O[C@H](COP(=O)(O)OP(=O)(O)NP(=O)(O)O)[C@@H](O)[C@H]1O [adenylyl imidodiphosphate]
# Assay: NP40-soluble protein abundance relative to vehicle (solubility fold change) (ratio); higher = more soluble protein in presence of AMP-PNP
# In short: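 Each value is a fold change relative to the detergent-processed vehicle, calculated per replicate from vsn-normalised intensities. Jurkat crude lysate received eight concentrations (0.1 to 10 mM) for 10 min at room temperature and 3 min at 37 °C, then was solubilised in 0.8% NP40 with benzonase (60 min, 4 °C). The ultracentrifuged supernatant was TMT-labelled and run by LC-MS/MS in three independent experiments.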
Target,NP40-soluble protein abundance (concentration: 0.1mM),NP40-soluble protein abundance (concentration: 0.5mM)
UniProt P62269,1.03 ± 0.015,0.99 ± 0.034
GABPA (UniProt Q06546),0.958 ± 0.033,1.01 ± 0.035
MRPS25 (UniProt P82663),0.991 ± 0.035,0.98 ± 0.026
UniProt P62633 and related entries,0.982 ± 0.033,1 ± 0.039
UniProt P55809 and related entries,1.01 ± 0.033,1.02 ± 0.054
UniProt P62244,0.999 ± 0.027,1.01 ± 0.059
UniProt P62487,1.04 ± 0.064,1.06 ± 0.087
UniProt P59190,1.011 ± 0.0096,1.01 ± 0.017
FKBP4 (UniProt Q02790),0.99 ± 0.025,0.992 ± 0.02
HDAC4 (UniProt P56524),0.983 ± 0.026,0.981 ± 0.051
UniProt P62879,0.9877 ± 0.0049,0.991 ± 0.059
UniProt P61964,1.005 ± 0.0047,1.019 ± 0.0075
UniProt P82912 and related entries,1.01 ± 0.057,1.07 ± 0.072
CSTF1 (UniProt Q05048),1.01 ± 0.009,0.989 ± 0.017
CDR2 (UniProt Q01850),0.975 ± 0.029,0.962 ± 0.011
YWHAH (UniProt Q04917),0.986 ± 0.022,1.03 ± 0.064
UniProt P62330,1.02 ± 0.013,1.06 ± 0.046
UniProt P78310 and related entries,1.02 ± 0.013,1.07 ± 0.035
GMFB (UniProt P60983),1.009 ± 0.01,1.02 ± 0.082
SORD (UniProt Q00796),0.953 ± 0.049,1.01 ± 0.058
UniProt P61962,1.02 ± 0.022,1 ± 0.097
UniProt P62913 and related entries,1.03 ± 0.044,1.04 ± 0.051
UniProt P63146,0.994 ± 0.029,1.028 ± 0.0023
UniProt Q05932 and related entries,1.017 ± 0.0086,1.01 ± 0.025

# A second format for some results above.
Target | NP40-soluble protein abundance (concentration: 0.1mM) | NP40-soluble protein abundance (concentration: 0.5mM)
MRPS25 (UniProt P82663) | 0.991 ± 0.035 | 0.98 ± 0.026
UniProt P62633 and related entries | 0.982 ± 0.033 | 1 ± 0.039
